# Assay results: PubChem BioAssay AID1347423 (Functional Genomics Laboratory (NCATS/FGL), 2020)
# Among all 52,000 sequences or so, about 210 (0.4%) were called active.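 How the source made its calls: active means gene whose silencing raises cell survival under the drug, median off-target-corrected z-score across its silencing RNAs 2 or more; inactive means the rest.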 The list shows a part of the results.
# Assay: Resistance to Poly (ADP-Ribose) Polymerase inhibitor: Gene Identification via Genome-wide siRNA Screen
# Conditions: mouse BRCA2 R2336H ES cells, olaparib, CellTiter-Glo viability; stronger effect = higher value
# How it was run: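 Mouse BRCA2 R2336H ES cells were reverse-transfected with siRNA (20 nM final), treated at 48 h with 500 nM olaparib, and read by CellTiter-Glo after 72 h. Scores: MAD-based z per siRNA, median per gene, seed off-target correction.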
row,Sequence,z-score
1,GGCCAACUUUUUUCACCCATT against Git1,inactive: -0.659
2,GGAACAUUCUCUCCUUAUGTT against Ctps,inactive: -1.73
3,GGGUCACCAAUCCCAUCAATT against Nags,inactive: 0.87
4,CGCAAACAAACCUUAACAGTT against Gm50,inactive: -0.615
5,GGACCUGAAGGCUGAAAUUTT against Ing4,inactive: 0.644
6,CCCAAGAGUGAGAUGACCCTT against Snrpd2,inactive: -1.75
7,CCUACAUCAGGUCAGCAAGTT against 2610012O22Rik,inactive: 0.799
8,GGUAAUGAAAAGCAUUGAATT against Epha1,inactive: -0.592
9,GGACCAUAAGCGACCCAAATT against Lmx1a,inactive: 0.367
10,GGAAGUCAAGAUCUCACCUTT against Lrrc25,inactive: -2.5
11,GGAGUACGAAGACUUCUCUTT against 5730557B15Rik,inactive: 0.361
12,GGCCCUGAACUGGUUUUGUTT against Osbpl10,inactive: -0.759
13,GGCAGGUGUAAAAUGUAAATT against Hpgd,inactive: 0.261
14,GGAUGGUCCAUGUCACAAATT against 4933425F03Rik,inactive: -0.791
15,GGAAGCAGUGGAGAAACCATT against Rfc4,inactive: -2.91
16,GGGAGAUGAUUAGUUCAUUTT against Mad1l1,inactive: -0.473
17,AACCGUUAUUAAAAGUGGGTT against Spt1,inactive: -0.412
18,GAUCUAAGAAUGCCUGUGGTT against Lzp-s,inactive: -1.63
19,GGUCCAACAUGUCUACCCATT against Rfx3,inactive: -0.484
20,GGUCUGAGCUUCCAAUAACTT against Dp1,inactive: 0.25
21,GGAUGUGCGGAACUUUAAGTT against Ccr7,inactive: -1.46
22,CGAGUGACCAAAAUUUGGATT against 4930458L03Rik,inactive: 0.958
23,GACAGUGAAGGCUUGCCAUTT against 1700019M22Rik,inactive: 0.831
24,CGUGCUUAGCAAUCUGAAUTT against Bcl6b,inactive: 0.895
25,GCGAAAUCAUGACAAAUUCTT against Tulp3,inactive: -0.0443
26,CCCGGUUCUUAGGUUUGUATT against BC022765,inactive: -1.83

row,Sequence,z-score
1,GGCAAAAGGCACUUUUGGATT against Ddc8,inactive: 1.19
2,GCAUUACGGCGUGUUCACCTT against Nr2f6,inactive: -0.56
3,GGUUCCUAGGUUUUAGAAATT against Olfr631,inactive: -1.12
4,GGCCAGACAAAUGAUGCCATT against Slc25a30,inactive: -0.303
5,GGGUGUUCAUAAAUGGUAUTT against Grb2,inactive: 0.492
6,GGAUUUUCACCGGAUAAAATT against 2410166I05Rik,inactive: -0.933
7,GGACAAGGAUGCAAUUAUCTT against 4833427G06Rik,inactive: -2.12
8,GGCUUAGCUUUUGUGAUUCTT against Olfr143,inactive: 0.372
9,CCACCUAUGAAUUAACACATT against Sdk1,inactive: 0.385
10,GGAAGGGCAAGUUAUGAAATT against Fgf14,inactive: -0.178
11,CCAUGGAAGUUUGAACUUATT against 1700006C19Rik,inactive: -0.263
12,GCCGGAGGUUACAGCAAAGTT against Dmrt1,inactive: -0.0996
13,GGAAAGUGAUUUUUGGAUCTT against Fpr-rs7,inactive: -0.105
14,GCAUUGUGCUUUUGACAACTT against Abca15,inactive: 0.654
15,GGGACAUUUCAGAUUGUAUTT against Thumpd1,inactive: -1.33
16,CCAGAUGGUCAAUCAGGCATT against 1810056O20Rik,inactive: 0.65
17,CGAUUACACUAGCAAGAAATT against Bche,inactive: 0.147
18,GCUCCUACGUGUCAGCCUUTT against C230094B15Rik,inactive: 0.0603
19,GCUGGACCACUGCAAUAUUTT against Gsk3a,inactive: 0.868
20,CCUUGACCUUAAUGUCUUCTT against Fgf23,inactive: -0.292
21,GGGAGAUCACCACCAUCCUTT against Bsx,inactive: -0.0161
22,GGAGUAUGGAACAAGCCAGTT against Plxnb3,inactive: -1.19
23,CCUCCUUGUGGCAUAAUGATT against 2600014C01Rik,inactive: -0.537
24,GGGAUUAUAGGGCGCAUUGTT against Olfr685,inactive: -1.78
25,GGCGGUCUUUAUUUAGACATT against Dusp12,inactive: -0.286
26,GGAACAUAACUCUUGUAUATT against Dhx35,inactive: 0.4

# Random excerpt: 6 records from the list, in no set order.
row,Sequence,z-score
26,GGAACAUAACUCUUGUAUATT against Dhx35,inactive: 0.4
12,GCCGGAGGUUACAGCAAAGTT against Dmrt1,inactive: -0.0996
1,GGCAAAAGGCACUUUUGGATT against Ddc8,inactive: 1.19
6,GGAUUUUCACCGGAUAAAATT against 2410166I05Rik,inactive: -0.933
25,GGCGGUCUUUAUUUAGACATT against Dusp12,inactive: -0.286
15,GGGACAUUUCAGAUUGUAUTT against Thumpd1,inactive: -1.33

# Additional entries

row,Sequence,z-score
1,CCCAACUCGGUUUUUUUCUTT against Olfr1037,inactive: 1.17
2,GCUACGGAUGCUUUUCAAATT against Ube2i,inactive: -3.06
3,GGACACCUGAUUUUCUUCUTT against Slc41a3,inactive: 0.496
4,GGCAGAGAAGGAGGCUAAGTT against Tcf7,inactive: -0.579
5,GGAAAUGGGAAGUUUAAUCTT against Cdo1,inactive: 0.543
6,GGUGUACAGUCUGUUCCGATT against Ltbp2,inactive: -1.09
7,GGGAGUGUUUGAAUCUUUUTT against 2810475A17Rik,inactive: -0.0603
8,GCUUUUGAUAUUCCACGUUTT against Pole2,inactive: -0.0546
9,GGAGAUUUCCUGUAACUUUTT against Osbpl3,inactive: -1.36
10,GGAAAUGCCAUUUGAUUUGTT against Rfpl4,inactive: -0.0205
11,GGGAUAGCUCUGCUCAGCATT against Olfr821,inactive: -1.6
12,GGGACAAAGGUGUGAACUCTT against Dpysl4,inactive: -0.733
13,GGCCGUCACUACUCUGAAATT against Mgst2,inactive: 9.7e-05
14,GGAGUUAUGUUAUACCUCCTT against Dazl,inactive: -0.0649
15,GCUCAUGUAGGAUGUAUAUTT against Olfr146,inactive: -1.95
16,GGCUAUUCGCUAUUGCCAUTT against Stk22c,inactive: 0.288
17,GGACUUCAACAAGACCAUCTT against 5430407P10Rik,inactive: 1.14
18,GCACUUGUCUUGAUUACAUTT against Fbxo4,inactive: 0.42
19,GGUUGAUCUGCAUUUUAUGTT against Slc4a10,inactive: -1.11
20,GGGAAGAAGAAAUACUGCGTT against Gzmg,inactive: 0.582
21,GCAGUUGUACUGCUAGAAATT against Oprl1,inactive: 0.542
22,GGUCCAUUACGUGCGCUUATT against Ctag3,inactive: 0.117
23,GGCAAAACCCAUUUAUGGUTT against AA536749,inactive: -0.575
24,CCGUCACACAACACUGAUGTT against Ctla4,inactive: 0.3
25,AUGUAUUGAGUCAGGCAUCTT against Olfr627,inactive: -0.431
26,CGUGAUCGUGCGUUCCAACTT against Chrnb4,inactive: -1.32

row,Sequence,z-score
1,CAUCCCAGAGUGUUGUCUUTT against Olfr1325,inactive: -1.53
2,GGUCUUCGUGCUUUGUCAUTT against Slco2a1,inactive: 1.1
3,GGAGUUUGGUAAAAUUGACTT against Dhrs7,inactive: -0.384
4,GGUUUUCUGCAUAGAUUUUTT against Sgtb,inactive: 1.38
5,GGAGCUGAUUCUGAUGAAGTT against Fbxo31,inactive: -0.87
6,CCUAAGGUACCAUUUUAAATT against AI462438,inactive: 0.653
7,UCUACAGGACUAUUAGAUUTT against Wnt6,inactive: 1.25
8,CGGAGUGUGAGCCAUUUUGTT against 2810432L12Rik,inactive: 0.0956
9,GGCAUUGUAGAGAUGACUCTT against 4732479N06Rik,inactive: 1.16
10,CCCUAUCAACUGAUCUUUUTT against Scml2,inactive: -0.607
11,GGAGAUCGAUAUUCGACUATT against 4933434E20Rik,inactive: -0.325
12,GCCGUCAAAAAUAUGCUGATT against Stim1,inactive: 0.316
13,CCGCGUACACCAACACUCATT against Hoxa2,inactive: -1.06
14,CGGUAUUUGUCUGUAUCCUTT against Npc2,inactive: 0.249
15,GGCACACAGUUUUGUACAUTT against Nfat5,inactive: 0.631
16,GGAAAUUCUACAGAAGUCUTT against 1110006O17Rik,inactive: 0.313
17,GGCUCAGUCCCAUCAGCAUTT against Gdf7,inactive: -2.16
18,GGAUGACAUCAUCAUUUGUTT against 1110030L07Rik,inactive: -0.682
19,GGAAGAAAUGGAAAUGGAUTT against Nek9,inactive: -0.497
20,GCCCAACCUGUCCAUACUUTT against Guca2b,inactive: 0.481
21,GGUAUGAUGAACAGUCCAGTT against A730011L11,inactive: -1.44
22,CAUGGACUCUAAGUAUAAUTT against GA_x5J8B7TQSKC-412-5,inactive: 1.25
23,GGCAUUCAGAGCUGAUUCATT against A930039G15Rik,inactive: -1.15
24,CCCACUGUCCAACUACUCATT against Tceb3bp1,inactive: -1.15
25,GCAAUCAAAAGAUUGUCACTT against Gmeb1,inactive: 0.964
26,GGAAGAGAAGCAAAUCCAATT against 2810022L02Rik,inactive: -2.02

# Looked up above:
# GCUUUUGAUAUUCCACGUUTT against Pole2 | z-score: inactive: -0.0546
# GGCUAUUCGCUAUUGCCAUTT against Stk22c | z-score: inactive: 0.288
